Measurements reported in article PMC12238573 (Nature Communications, 2025).

T1: PRPS1-GFP (UniProt Q9D7G0)
T1 sequence: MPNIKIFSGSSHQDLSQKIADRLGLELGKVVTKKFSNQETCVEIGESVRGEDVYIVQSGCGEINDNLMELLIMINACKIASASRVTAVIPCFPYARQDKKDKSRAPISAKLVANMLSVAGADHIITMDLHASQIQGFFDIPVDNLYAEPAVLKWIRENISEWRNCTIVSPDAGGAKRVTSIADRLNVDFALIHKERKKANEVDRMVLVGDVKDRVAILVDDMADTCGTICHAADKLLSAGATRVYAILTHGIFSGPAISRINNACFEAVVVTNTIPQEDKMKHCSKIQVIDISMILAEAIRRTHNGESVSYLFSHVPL

T2: PRPSAP1-GFP (UniProt Q14558)
T2 sequence: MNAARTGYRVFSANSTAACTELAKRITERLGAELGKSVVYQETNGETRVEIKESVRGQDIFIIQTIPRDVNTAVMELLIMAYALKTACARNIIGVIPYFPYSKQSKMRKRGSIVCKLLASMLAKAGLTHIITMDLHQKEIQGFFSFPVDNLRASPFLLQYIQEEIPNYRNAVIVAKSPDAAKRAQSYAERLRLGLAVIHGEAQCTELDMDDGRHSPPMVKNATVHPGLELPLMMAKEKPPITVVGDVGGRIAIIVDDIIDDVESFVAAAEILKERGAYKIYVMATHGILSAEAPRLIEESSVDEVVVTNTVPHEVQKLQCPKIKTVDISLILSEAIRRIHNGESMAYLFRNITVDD

T3: PRPSAP2-GFP (UniProt O60256)
T3 sequence: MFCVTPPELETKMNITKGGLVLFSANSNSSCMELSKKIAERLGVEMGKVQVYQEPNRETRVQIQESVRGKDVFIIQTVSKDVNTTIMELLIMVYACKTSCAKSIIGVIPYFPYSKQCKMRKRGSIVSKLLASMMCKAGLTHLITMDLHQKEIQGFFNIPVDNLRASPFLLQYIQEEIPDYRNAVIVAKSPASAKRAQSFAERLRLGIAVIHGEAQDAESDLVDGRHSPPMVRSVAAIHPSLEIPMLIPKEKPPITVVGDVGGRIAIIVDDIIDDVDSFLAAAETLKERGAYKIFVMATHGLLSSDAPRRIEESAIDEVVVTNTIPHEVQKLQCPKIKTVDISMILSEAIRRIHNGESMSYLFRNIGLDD

T4: PRPS2-GFP (UniProt Q9CS42)
T4 sequence: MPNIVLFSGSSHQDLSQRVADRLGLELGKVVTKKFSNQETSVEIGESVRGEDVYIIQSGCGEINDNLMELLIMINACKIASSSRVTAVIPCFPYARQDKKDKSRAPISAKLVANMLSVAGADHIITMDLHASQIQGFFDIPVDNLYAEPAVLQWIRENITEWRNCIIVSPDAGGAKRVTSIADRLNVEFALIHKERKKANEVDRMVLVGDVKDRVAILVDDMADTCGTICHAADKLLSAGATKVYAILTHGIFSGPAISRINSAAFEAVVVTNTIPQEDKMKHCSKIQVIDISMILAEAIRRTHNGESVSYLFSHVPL


What was measured:
Assay in all cases: affinity purification with mass spectrometry; GFP-Trap magnetic particles on lysates of NIH3T3 and HEK293T cells stably expressing GFP-tagged paralogs (NES-GFP as control); digitonin lysis buffer pH 7.5, 200 mM NaCl; washes with 1.5 M NaCl, 0.5% Triton X-100; eluates on Coomassie gel and by nanoLC-MS/MS
[1] = target: T1, PRPS1-GFP
[2] = target: T2, PRPSAP1-GFP
[3] = target: T3, PRPSAP2-GFP
[4] = target: T4, PRPS2-GFP

Binder | binding [1] | binding [2] | binding [3] | binding [4]
PRPS2 (endogenous, mouse) (enzyme, UniProt Q9CS42 1-318, looked up, PRPS2, endogenous in mouse cells and tissues; also called P2; phosphoribosyl pyrophosphate synthetase 2; source: endogenous, NIH3T3 lysate (parental and CRISPR knockout lines); endogenous, C57BL/6 mouse liver, kidney and lung lysates) MPNIVLFSGSSHQDLSQRVADRLGLELGKVVTKKFSNQETSVEIGESVRGEDVYIIQSGCGEINDNLMELLIMINACKIASSSRVTAVIPCFPYARQDKKDKSRAPISAKLVANMLSVAGADHIITMDLHASQIQGFFDIPVDNLYAEPAVLQWIRENITEWRNCIIVSPDAGGAKRVTSIADRLNVEFALIHKERKKANEVDRMVLVGDVKDRVAILVDDMADTCGTICHAADKLLSAGATKVYAILTHGIFSGPAISRINSAAFEAVVVTNTIPQEDKMKHCSKIQVIDISMILAEAIRRTHNGESVSYLFSHVPL | binds | binds | binds | 
PRPSAP2 (endogenous, mouse) (protein, UniProt Q8R574 1-369) MFCVAPPELETKMNITKGGLVLFSANSNSSCMELSKKIAERLGVEMGKVQVYQEPNRETRVQIQESVRGKDVFIIQTISKDVNTTIMELLIMVYACKTSCAKSIIGVIPYFPYSKQCKMRKRGSIVSKLLASMMCKAGLTHLITMDLHQKEIQGFFNIPVDNLRASPFLLQYIQEEIPDYRNAVIVAKSPASAKRAQSFAERLRLGIAVIHGEAQDAESDLVDGRHSPPMVRSVAAIHPSLEIPMLIPKEKPPITVVGDVGGRIAIIVDDIIDDVDSFLAAAETLKERGAYKIFVMATHGLLSSDAPRLIEESAIDEVVVTNTIPHEIQKLQCPKIKTVDISMILSEAIRRIHNGESMSYLFRNIGLDD |  | binds |  | binds
PRPS1 (endogenous, human) (enzyme, UniProt P60891-1 1-318) MPNIKIFSGSSHQDLSQKIADRLGLELGKVVTKKFSNQETCVEIGESVRGEDVYIVQSGCGEINDNLMELLIMINACKIASASRVTAVIPCFPYARQDKKDKSRAPISAKLVANMLSVAGADHIITMDLHASQIQGFFDIPVDNLYAEPAVLKWIRENISEWRNCTIVSPDAGGAKRVTSIADRLNVDFALIHKERKKANEVDRMVLVGDVKDRVAILVDDMADTCGTICHAADKLLSAGATRVYAILTHGIFSGPAISRINNACFEAVVVTNTIPQEDKMKHCSKIQVIDISMILAEAIRRTHNGESVSYLFSHVPL |  |  |  | binds
PRPSAP1 (endogenous, human) (protein, UniProt Q14558 1-356) MNAARTGYRVFSANSTAACTELAKRITERLGAELGKSVVYQETNGETRVEIKESVRGQDIFIIQTIPRDVNTAVMELLIMAYALKTACARNIIGVIPYFPYSKQSKMRKRGSIVCKLLASMLAKAGLTHIITMDLHQKEIQGFFSFPVDNLRASPFLLQYIQEEIPNYRNAVIVAKSPDAAKRAQSYAERLRLGLAVIHGEAQCTELDMDDGRHSPPMVKNATVHPGLELPLMMAKEKPPITVVGDVGGRIAIIVDDIIDDVESFVAAAEILKERGAYKIYVMATHGILSAEAPRLIEESSVDEVVVTNTVPHEVQKLQCPKIKTVDISLILSEAIRRIHNGESMAYLFRNITVDD |  |  | binds | binds
PRPSAP2 (endogenous, human) (protein, UniProt O60256-1 1-369) MFCVTPPELETKMNITKGGLVLFSANSNSSCMELSKKIAERLGVEMGKVQVYQEPNRETRVQIQESVRGKDVFIIQTVSKDVNTTIMELLIMVYACKTSCAKSIIGVIPYFPYSKQCKMRKRGSIVSKLLASMMCKAGLTHLITMDLHQKEIQGFFNIPVDNLRASPFLLQYIQEEIPDYRNAVIVAKSPASAKRAQSFAERLRLGIAVIHGEAQDAESDLVDGRHSPPMVRSVAAIHPSLEIPMLIPKEKPPITVVGDVGGRIAIIVDDIIDDVDSFLAAAETLKERGAYKIFVMATHGLLSSDAPRRIEESAIDEVVVTNTIPHEVQKLQCPKIKTVDISMILSEAIRRIHNGESMSYLFRNIGLDD |  | binds |  | binds
PRPS2 (endogenous, human) (enzyme, UniProt P11908-1 1-318) MPNIVLFSGSSHQDLSQRVADRLGLELGKVVTKKFSNQETSVEIGESVRGEDVYIIQSGCGEINDNLMELLIMINACKIASSSRVTAVIPCFPYARQDKKDKSRAPISAKLVANMLSVAGADHIITMDLHASQIQGFFDIPVDNLYAEPAVLQWIRENIAEWKNCIIVSPDAGGAKRVTSIADRLNVEFALIHKERKKANEVDRMVLVGDVKDRVAILVDDMADTCGTICHAADKLLSAGATKVYAILTHGIFSGPAISRINNAAFEAVVVTNTIPQEDKMKHCTKIQVIDISMILAEAIRRTHNGESVSYLFSHVPL | binds | binds | binds | 
PRPSAP1 (endogenous, mouse) (protein, UniProt Q9D0M1 1-356) MNAARTGYRVFSANSTAACTELAKRITERLGAELGKSVVYQETNGETRVEIKESVRGQDIFIIQTIPRDVNTAVMELLIMAYALKTACARNIIGVIPYFPYSKQSKMRKRGSIVCKLLASMLAKAGLTHIITMDLHQKEIQGFFSFPVDNLRASPFLLQYIQEEIPNYRNAVIVAKSPDAAKRAQSYAERLRLGLAVIHGEAQCTELDMDDGRHSPPMVKNATVHPGLELPLMMAKEKPPITVVGDVGGRIAIIVDDIIDDVESFVAAAEILKERGAYKIYVMATHGILSAEAPRLIEESPIDEVVVTNTVPHELQKLQCPKIKTVDISLILSEAIRRIHNGESMAYLFRNITVDD |  |  | binds | binds
PRPS1L1 (endogenous, human) (enzyme, UniProt P21108 1-318) MPNIKIFSGSSHQDLSQKIADRLGLELGKVVTKKFSNQETCVEIDESVRGEDVYIVQSGCGEINDSLMELLIMINACKIASASRVTAVIPCFPYARQDKKDKSRSPISAKLVANMLSIAGADHIITMDLHASQIQGFFDIPVDNLYAEPTVLKWIRENIPEWKNCIIVSPDAGGAKRVTSIADQLNVDFALIHKERKKANEVDCIVLVGDVNDRVAILVDDMADTCVTICLAADKLLSAGATRVYAILTHGIFSGPAISRINTACFEAVVVTNTIPQDEKMKHCSKIRVIDISMILAEAIRRTHNGESVSYLFSHVPL | binds |  |  | 
PRPS1 (endogenous, mouse) (enzyme, UniProt Q9D7G0 1-318) MPNIKIFSGSSHQDLSQKIADRLGLELGKVVTKKFSNQETCVEIGESVRGEDVYIVQSGCGEINDNLMELLIMINACKIASASRVTAVIPCFPYARQDKKDKSRAPISAKLVANMLSVAGADHIITMDLHASQIQGFFDIPVDNLYAEPAVLKWIRENISEWRNCTIVSPDAGGAKRVTSIADRLNVDFALIHKERKKANEVDRMVLVGDVKDRVAILVDDMADTCGTICHAADKLLSAGATRVYAILTHGIFSGPAISRINNACFEAVVVTNTIPQEDKMKHCSKIQVIDISMILAEAIRRTHNGESVSYLFSHVPL |  |  |  | binds

These are yes or no findings as the source states them, for the method shown. In cells and extracts the contact can be indirect. A yes stands for co-enrichment or nearness to the bait. Other partners may have been found. Where a sequence is shown, tags or fusion partners need not be part of it.
